Reference: paper PMC3558320
No constants are given. Whether binding was seen depends on the method and setting. In cells and extracts the contact can be indirect. Tags and fused reporters may be left off the sequences shown.

Chains of the proteins cited; added tags and fusions are not shown.
UniProt O08934: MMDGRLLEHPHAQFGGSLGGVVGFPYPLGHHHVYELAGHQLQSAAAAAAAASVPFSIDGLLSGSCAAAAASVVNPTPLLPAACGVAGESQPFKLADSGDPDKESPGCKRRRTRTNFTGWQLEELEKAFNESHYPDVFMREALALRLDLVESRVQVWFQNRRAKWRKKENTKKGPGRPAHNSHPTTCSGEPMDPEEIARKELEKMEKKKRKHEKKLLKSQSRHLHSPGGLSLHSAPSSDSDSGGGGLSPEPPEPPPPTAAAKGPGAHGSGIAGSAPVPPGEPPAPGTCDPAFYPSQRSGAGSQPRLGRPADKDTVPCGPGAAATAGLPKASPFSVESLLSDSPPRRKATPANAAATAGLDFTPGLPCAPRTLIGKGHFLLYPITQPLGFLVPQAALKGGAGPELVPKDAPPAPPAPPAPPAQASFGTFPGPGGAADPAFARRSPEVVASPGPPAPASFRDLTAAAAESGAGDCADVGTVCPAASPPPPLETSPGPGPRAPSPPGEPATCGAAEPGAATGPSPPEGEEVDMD

Molecular target: T1, Ngn2-FLAG (mouse) (UniProt P70447)
T1 sequence: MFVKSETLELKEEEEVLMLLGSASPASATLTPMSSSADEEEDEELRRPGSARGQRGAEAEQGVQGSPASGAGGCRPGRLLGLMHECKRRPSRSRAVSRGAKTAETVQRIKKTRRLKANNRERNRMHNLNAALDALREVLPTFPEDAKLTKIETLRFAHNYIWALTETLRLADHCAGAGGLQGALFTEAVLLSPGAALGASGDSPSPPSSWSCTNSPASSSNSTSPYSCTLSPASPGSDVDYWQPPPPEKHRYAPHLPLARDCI
Assay: co-IP; Hela cells co-transfected with Uncx4.1-c-myc and Ngn2-FLAG, MG132 20 μm, harvested 24 hours after transfection; Co-IP with FLAG tagged beads; western blot with anti-c-myc and anti-FLAG

Substance: Uncx4.1-c-myc (from UniProt O08934 1-530)
- binding: no binding
